Measured values as given in PubChem BioAssay AID1347426 (Functional Genomics Laboratory (NCATS/FGL), 2020).
Screen size: about 31,000 sequences; about 1,400 (4.5%) were called active.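 How the source made its calls: active means median seed-adjusted z-score above 1 or below -1; inactive means the rest.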 The list shows a part of the results.

assay: Novel Modifiers of Survival Motor Neuron (SMN) Protein: Gene Identification via Genome-wide siRNA Screen; conditions: HEK293T SMN2-luciferase reporter, siRNA knockdown, 72 h; actives lie on both sides;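 further: luminescence tracks full-length SMN protein made from the SMN2 reporter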
Summary of the method: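 Genome-wide siRNA screen (10418 genes, 3 siRNAs each, 1 pmol per well) by reverse transfection in HEK293T cells stably carrying an SMN2-luciferase reporter; luminescence after 72 hours, normalized to negative-control siRNA, log10-transformed, MAD-scored.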

Sequence | median seed-adjusted z-score
GGCACGAAAUGAGUCCUCATT against MSLN | inactive: -0.344
AGGCAGAUGUCGUCCCAAATT against PPIF | inactive: 0.0719
CAGUGCUGUUUGGACAAGATT against IKBKE | inactive: 0.122
GGAACUAACUAUGUCGACATT against PCDHB2 | inactive: 0
GAACCCAAGAAAUCAAUUATT against ZNF197 | inactive: -0.219
GCAUCGCUUUAAACUCGUATT against IFNGR1 | inactive: -0.279
GAACUUAACCAGUGCAGAATT against IGF2BP2 | inactive: 0.281
GGAUUUAUCAGAACCUUUATT against SLC25A15 | inactive: -0.0116
GGAAUAUUCUGACUAUAAUTT against UGT2B17 | inactive: -0.0203
CAGCAUGCCUUGUACAGCATT against ANKIB1 | inactive: -0.00367
GUACUUAGAGAGGCUCAAATT against DCI | inactive: 0.469
GCACUUACGUGAGUAAAUATT against LEFTY2 | inactive: -0.33
GCUGUGCUAUGGGAGUUAATT against ADH1A | inactive: 0.624
CCCUAUAUCUGCAAAGUGUTT against ZIC3 | inactive: -0.183
CUCUUAUCCUUAGAUCCAATT against BBS10 | inactive: 0.298
CAAUCAGCCGGAAAGAGAATT against PACSIN3 | inactive: -0.0145
GGCGAAGUGUCCGACAGAATT against ZNF747 | inactive: 0.379
GAUCAGUAGCCUUCAGAAATT against RSU1 | inactive: 0.176
GGAAGUUUGUUGAAGGUCUTT against MDH1 | inactive: -0.154
CCUAUUACGUCAUCGAAUATT against PTPRS | inactive: -0.433
CAGACAUUGGAGUGGAUUATT against BBOX1 | inactive: 0.152
CAACUGUGAUUAAUGAUCATT against PDE3A | inactive: 0.291
CAACGGCUACUGCAACGAATT against TNFAIP3 | inactive: 0.11

Sequence | median seed-adjusted z-score
CCGCCUUUUUACUAGAGAATT against SCN3A | inactive: -0.0556
ACAGAUACCUUUUCAAGCATT against DMD | inactive: -0.626
AGACCUUUCUGUCCACCAATT against ANGPT4 | inactive: 0
GGGACACUAUAUUCCAGAATT against PRKCD | inactive: -0.236
CCUCGAUCCUUAGUAAACATT against ZNF486 | inactive: 0.324
AUAUAACUGCUGAUCUAGATT against SPCS3 | inactive: 0.417
GAACUGUCAGGAUCAAGUATT against PDZD2 | inactive: -0.00167
UCAGGACUCUGGACAUUCATT against ADAM33 | inactive: -0.038
CCAACUUGCCCAAUCACAATT against GLI1 | inactive: -0.347
GCAUAAGACGUGUGAUUGATT against TRMT5 | inactive: 0
CGUUCGCACAUUCCUUAUATT against KIF6 | inactive: -0.0396
GAUCUUCUCAACUUACUGATT against ZNF266 | inactive: 0.426
GGGUGAAAACGCAGCAGAATT against GH2 | inactive: 0.374
UCAAUUAUGUGGCCAGGAATT against NUDT2 | inactive: 0.891
GACUAGCCGAUGACCUCAATT against MKL1 | inactive: -0.138
GCUGCGUAUGAAUCAGAUATT against DIS3L2 | inactive: -0.265
GGCACAACAAAACUCGAAATT against SERPINB5 | inactive: -0.0181
GCAUAUCCCACUCCACUAATT against CGA | inactive: 0.0904
GUUGUUCCUUUGUAUCCAATT against DHX32 | inactive: -0.12
GGAAGAUGCACUGACUAGATT against DNAJC1 | inactive: 0.134
CGAUCUUUCCGGUCUGAUATT against DAB2IP | inactive: 0.505
CAGCUCAACGAGUUGGAGATT against OTP | inactive: 0.00717
CUAUGGACAUGUCAAUUGUTT against CCNA2 | inactive: 0.136

A second format for some results above.

| Sequence | median seed-adjusted z-score |
| --- | --- |
| CUCUUAUCCUUAGAUCCAATT against BBS10 | inactive: 0.298 |
| CAAUCAGCCGGAAAGAGAATT against PACSIN3 | inactive: -0.0145 |

Remaining list, next part

Sequence | median seed-adjusted z-score
GGAUGAGCAGUACCAGGCATT against PYCARD | inactive: 0.117
GCUCUAAUCUUAGUAAACATT against ZIM2 | inactive: -0.565
GAAAAACGAUGUAAGCAAUTT against ADH1A | inactive: 0.624
CAGACGACACUGUCAAAAATT against CES1 | inactive: -0.536
GGUCACAUCUUAUAGGGCATT against ZNF449 | inactive: 0.178
GGCUUAGGAUGGAGACCUATT against TGDS | inactive: -0.196
GAACAUCAGAAGUCACAGATT against TRDN | inactive: 0.195
GAAGAUCAAUGGUAUGGUUTT against NCK1 | inactive: -0.0795
GCCUCGUUCUUCGCCUUCATT against MALL | inactive: -0.477
CCUCUAACAUUGGUUCCAATT against XPNPEP1 | active: -1.5
CCAUCGUGUUACUUAGCAATT against ZNF280A | inactive: -0.207
GGAAGGCUAUGGAACUAGATT against ARID1B | inactive: 0.108
AGGAAAAGCUGGAACGGGUTT against DPP3 | inactive: -0.261
GCCUAGAAGUGGAACGUGUTT against IFT57 | active: -1.1
GCAGCUACGUCACACACGATT against DYNLL2 | inactive: -0.201
CCUGGUUAUUGAGAAAGCATT against CAPN11 | inactive: -0.273
GGCUAUUCUUCUGUUAUUATT against KISS1R | inactive: -0.299
GCCUAACUAUGGGACAGCUTT against GABARAPL2 | inactive: 0.528
GCUGGAUUCCUAUAUACCATT against SGPP1 | inactive: 0.0859
GGUAUUAUCGGGAACCAUUTT against GPR161 | inactive: -0.138
GGUUGAUGCUAAUAGCUCUTT against SRCAP | inactive: -0.42
GAGAGGCUCAGAUAAAGUGTT against VSX1 | inactive: -0.91
